The other results are listed elsewhere or left out.
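Further: competitive profiling in live THP-1 cells: cysteine peptides tagged with an iodoacetamide desthiobiotin (IA-DTB) probe, intensity after compound treatment relative to DMSO-treated cells.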

By UniProt entry, the sequences of proteins in these tests, tags left out. Where a name states a change or a piece, a line headed by the entry shows the natural chain unless it says otherwise.
UniProt P50991: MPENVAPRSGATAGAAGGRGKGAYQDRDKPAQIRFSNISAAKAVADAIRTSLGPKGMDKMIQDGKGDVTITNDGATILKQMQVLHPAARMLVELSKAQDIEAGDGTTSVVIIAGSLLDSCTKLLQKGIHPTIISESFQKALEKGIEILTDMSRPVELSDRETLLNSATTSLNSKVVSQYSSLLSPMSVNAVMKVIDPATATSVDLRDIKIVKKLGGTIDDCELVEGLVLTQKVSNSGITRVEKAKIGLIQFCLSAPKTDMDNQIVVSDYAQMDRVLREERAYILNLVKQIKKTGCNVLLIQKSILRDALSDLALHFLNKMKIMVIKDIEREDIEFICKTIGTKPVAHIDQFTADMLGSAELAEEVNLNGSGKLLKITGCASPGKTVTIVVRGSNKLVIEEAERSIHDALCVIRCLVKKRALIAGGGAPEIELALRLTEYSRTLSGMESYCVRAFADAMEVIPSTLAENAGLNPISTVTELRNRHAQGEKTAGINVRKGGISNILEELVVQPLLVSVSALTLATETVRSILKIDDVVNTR
UniProt Q8N163, whole entry, looked up: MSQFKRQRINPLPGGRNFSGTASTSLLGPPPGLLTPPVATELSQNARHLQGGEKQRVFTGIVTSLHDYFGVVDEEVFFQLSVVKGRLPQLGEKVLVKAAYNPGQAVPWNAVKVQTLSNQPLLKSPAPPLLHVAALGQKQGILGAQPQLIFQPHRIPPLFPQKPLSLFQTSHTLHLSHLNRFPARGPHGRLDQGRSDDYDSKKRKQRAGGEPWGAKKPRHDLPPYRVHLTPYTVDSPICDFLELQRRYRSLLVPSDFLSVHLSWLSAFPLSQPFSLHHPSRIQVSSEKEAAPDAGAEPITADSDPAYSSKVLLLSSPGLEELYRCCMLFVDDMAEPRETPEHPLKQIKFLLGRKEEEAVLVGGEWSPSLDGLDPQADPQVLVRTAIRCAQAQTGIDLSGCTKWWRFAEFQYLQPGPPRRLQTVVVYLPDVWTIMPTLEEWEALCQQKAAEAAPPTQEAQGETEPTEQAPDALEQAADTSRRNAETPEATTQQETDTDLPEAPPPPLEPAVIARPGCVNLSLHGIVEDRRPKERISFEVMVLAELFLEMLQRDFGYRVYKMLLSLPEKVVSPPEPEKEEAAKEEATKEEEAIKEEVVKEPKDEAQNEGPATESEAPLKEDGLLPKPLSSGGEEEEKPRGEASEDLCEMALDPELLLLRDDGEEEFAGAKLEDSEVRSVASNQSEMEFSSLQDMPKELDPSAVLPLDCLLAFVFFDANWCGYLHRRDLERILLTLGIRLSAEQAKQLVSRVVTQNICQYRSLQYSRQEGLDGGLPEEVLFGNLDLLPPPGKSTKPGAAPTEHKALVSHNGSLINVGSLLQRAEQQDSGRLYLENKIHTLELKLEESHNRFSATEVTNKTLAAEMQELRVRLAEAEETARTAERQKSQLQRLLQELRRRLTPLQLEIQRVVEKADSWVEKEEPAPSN
UniProt P51946: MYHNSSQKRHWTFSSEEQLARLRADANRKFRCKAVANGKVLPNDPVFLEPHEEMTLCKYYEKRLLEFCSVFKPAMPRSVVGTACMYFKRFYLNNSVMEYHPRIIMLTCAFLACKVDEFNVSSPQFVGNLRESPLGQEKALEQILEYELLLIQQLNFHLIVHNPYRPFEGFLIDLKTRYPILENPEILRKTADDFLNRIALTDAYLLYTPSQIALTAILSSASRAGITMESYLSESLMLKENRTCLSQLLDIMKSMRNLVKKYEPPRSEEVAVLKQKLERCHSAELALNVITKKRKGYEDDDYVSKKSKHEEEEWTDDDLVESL
UniProt Q92851: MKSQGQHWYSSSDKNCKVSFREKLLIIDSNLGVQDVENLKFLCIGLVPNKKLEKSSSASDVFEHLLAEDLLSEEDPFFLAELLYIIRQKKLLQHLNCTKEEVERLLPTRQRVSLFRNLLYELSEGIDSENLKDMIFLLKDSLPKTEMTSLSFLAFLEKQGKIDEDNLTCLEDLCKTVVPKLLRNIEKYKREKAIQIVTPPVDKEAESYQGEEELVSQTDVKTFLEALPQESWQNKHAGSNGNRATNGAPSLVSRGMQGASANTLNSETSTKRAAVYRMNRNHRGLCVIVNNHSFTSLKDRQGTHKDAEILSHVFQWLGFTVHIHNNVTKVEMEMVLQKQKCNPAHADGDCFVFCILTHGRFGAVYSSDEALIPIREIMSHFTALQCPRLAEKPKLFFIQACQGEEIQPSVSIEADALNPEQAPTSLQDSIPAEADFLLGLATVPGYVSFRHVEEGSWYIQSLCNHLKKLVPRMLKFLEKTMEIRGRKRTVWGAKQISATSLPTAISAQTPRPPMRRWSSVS
UniProt P42574: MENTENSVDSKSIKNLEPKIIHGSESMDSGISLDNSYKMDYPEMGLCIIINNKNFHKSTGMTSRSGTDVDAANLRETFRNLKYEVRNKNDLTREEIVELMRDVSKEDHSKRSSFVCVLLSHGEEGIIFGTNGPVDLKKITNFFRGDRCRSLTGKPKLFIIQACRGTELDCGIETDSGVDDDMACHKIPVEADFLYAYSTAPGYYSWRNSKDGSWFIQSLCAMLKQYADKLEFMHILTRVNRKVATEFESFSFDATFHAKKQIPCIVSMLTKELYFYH
UniProt P49589: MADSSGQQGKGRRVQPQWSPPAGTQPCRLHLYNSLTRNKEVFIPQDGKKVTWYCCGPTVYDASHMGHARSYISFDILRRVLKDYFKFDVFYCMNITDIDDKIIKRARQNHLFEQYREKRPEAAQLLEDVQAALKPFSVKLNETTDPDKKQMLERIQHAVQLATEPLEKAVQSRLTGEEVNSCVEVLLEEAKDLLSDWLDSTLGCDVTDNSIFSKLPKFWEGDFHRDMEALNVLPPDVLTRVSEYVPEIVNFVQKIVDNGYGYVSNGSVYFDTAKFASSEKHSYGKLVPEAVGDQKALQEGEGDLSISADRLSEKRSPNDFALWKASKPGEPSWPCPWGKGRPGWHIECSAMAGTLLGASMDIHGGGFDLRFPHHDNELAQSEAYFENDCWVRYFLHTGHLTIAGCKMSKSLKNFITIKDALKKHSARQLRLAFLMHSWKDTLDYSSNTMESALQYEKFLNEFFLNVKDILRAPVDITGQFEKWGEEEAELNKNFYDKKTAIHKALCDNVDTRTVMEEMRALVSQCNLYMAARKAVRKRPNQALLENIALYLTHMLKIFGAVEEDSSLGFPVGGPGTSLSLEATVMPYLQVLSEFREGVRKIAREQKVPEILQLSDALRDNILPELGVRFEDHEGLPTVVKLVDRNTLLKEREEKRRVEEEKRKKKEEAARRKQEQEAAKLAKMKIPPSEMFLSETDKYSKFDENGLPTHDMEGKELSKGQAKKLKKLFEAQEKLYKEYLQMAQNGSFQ
UniProt P42575: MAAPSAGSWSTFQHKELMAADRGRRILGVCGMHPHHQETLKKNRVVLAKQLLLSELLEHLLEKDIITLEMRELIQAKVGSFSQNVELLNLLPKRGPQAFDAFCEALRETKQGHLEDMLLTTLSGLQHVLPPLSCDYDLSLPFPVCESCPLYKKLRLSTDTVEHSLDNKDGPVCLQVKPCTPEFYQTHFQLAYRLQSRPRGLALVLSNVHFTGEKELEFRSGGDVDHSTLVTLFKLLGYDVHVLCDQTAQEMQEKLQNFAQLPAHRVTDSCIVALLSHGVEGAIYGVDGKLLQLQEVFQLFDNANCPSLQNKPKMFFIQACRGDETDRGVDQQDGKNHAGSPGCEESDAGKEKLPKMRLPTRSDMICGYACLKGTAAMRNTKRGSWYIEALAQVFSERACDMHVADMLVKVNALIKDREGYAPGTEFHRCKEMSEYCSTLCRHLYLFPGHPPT
UniProt Q7Z3E2: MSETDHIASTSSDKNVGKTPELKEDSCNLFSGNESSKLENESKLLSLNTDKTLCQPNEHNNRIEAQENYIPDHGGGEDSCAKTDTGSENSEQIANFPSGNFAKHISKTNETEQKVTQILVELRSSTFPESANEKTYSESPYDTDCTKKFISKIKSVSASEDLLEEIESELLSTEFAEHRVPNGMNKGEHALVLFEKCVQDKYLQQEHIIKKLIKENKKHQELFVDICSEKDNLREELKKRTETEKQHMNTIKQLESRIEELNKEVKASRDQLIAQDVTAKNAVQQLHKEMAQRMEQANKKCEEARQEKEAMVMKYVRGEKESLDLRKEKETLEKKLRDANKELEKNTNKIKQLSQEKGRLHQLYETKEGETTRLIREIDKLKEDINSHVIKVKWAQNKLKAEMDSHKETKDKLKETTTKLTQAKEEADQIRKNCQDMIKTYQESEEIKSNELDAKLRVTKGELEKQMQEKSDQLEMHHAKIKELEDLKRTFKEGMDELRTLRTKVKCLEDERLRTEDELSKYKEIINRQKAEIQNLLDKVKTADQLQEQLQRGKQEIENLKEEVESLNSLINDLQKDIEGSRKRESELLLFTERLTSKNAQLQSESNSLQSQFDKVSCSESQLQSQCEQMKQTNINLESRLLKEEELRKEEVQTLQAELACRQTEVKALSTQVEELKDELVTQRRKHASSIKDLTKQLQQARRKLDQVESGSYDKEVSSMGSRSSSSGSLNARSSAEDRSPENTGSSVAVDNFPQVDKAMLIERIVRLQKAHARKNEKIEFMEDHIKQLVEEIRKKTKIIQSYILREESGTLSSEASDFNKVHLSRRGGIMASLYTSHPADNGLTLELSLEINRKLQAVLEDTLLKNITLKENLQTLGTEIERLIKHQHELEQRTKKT
UniProt O75808: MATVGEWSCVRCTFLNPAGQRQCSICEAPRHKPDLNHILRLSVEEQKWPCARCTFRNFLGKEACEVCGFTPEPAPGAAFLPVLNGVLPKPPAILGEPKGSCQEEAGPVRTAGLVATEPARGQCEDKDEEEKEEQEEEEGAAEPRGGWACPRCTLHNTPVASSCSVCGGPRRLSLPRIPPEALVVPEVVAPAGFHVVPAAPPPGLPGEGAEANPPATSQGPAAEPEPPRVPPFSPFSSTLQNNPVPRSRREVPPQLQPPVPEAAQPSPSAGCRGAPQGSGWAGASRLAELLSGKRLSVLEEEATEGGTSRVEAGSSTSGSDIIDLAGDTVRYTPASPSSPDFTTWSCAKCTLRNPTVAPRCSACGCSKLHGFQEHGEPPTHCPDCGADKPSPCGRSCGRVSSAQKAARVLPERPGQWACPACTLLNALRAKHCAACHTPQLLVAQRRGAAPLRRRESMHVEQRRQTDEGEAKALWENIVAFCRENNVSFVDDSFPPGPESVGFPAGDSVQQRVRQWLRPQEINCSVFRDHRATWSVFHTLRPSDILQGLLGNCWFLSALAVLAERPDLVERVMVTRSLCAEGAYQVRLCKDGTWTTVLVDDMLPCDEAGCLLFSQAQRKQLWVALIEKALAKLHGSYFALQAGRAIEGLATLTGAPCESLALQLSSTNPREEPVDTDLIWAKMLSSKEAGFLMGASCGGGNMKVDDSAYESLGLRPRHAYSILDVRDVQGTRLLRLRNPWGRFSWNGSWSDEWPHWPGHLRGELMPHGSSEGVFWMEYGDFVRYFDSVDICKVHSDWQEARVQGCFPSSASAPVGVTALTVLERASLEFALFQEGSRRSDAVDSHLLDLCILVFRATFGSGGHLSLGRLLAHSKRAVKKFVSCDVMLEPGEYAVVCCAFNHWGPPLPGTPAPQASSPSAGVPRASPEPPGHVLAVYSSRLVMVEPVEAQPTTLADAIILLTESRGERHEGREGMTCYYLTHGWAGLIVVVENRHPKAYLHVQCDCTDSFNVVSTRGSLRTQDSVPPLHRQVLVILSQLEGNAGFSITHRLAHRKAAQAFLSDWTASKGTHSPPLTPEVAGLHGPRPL
UniProt P49368: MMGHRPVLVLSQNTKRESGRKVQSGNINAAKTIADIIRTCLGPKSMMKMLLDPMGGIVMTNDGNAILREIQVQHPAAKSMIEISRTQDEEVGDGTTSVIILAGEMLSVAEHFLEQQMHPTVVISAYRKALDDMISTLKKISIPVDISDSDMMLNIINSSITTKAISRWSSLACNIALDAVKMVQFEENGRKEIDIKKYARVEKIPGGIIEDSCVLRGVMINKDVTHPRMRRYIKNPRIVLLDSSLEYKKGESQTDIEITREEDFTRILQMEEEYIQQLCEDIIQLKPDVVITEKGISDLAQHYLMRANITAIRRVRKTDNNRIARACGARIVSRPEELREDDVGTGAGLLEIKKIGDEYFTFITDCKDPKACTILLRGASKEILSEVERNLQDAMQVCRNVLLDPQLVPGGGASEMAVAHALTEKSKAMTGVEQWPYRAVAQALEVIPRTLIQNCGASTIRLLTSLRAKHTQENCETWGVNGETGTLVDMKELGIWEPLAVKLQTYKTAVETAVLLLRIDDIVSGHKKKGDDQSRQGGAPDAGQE

Compound in the assay: Cc1cc(ccc1-c1ccccc1)C(=O)N1CCCN(CC1)C(=O)CCl [compound 10]
The experiment in a line: probe-labelled cysteine peptide fold change vs DMSO (competition) (log2 fold change); higher = less target engagement (more negative = stronger competition). As to conditions: 10 µM; THP-1; incubation time: 4 h.
With “CCT4_P50991_295_KTGCNVLLIQK (UniProt P50991)”, the “probe-labelled cysteine peptide fold change” value is -0.241.

With “CCAR2_Q8N163_644_PRGEASEDLCEMALDPELLLLR (UniProt Q8N163)”, the “probe-labelled cysteine peptide fold change” value was 0.453. Consider “CCNH_P51946_244_TCLSQLLDIMK (UniProt P51946)”, for which the “probe-labelled cysteine peptide fold change” value was determined as 0.153. For “CASP10_Q92851_341+350_CNPAHADGDCFVFCILTHGR (UniProt Q92851)”, the “probe-labelled cysteine peptide fold change” value was -0.106. For “CAPZA2_P47755_157_IDGQQTIIACIESHQFQAK (UniProt P47755)” the value was -0.187; for “CASP10_Q92851_97_LLQHLNCTK (UniProt Q92851)”, -0.123; for “CASP8_Q14790_287_NGTHLDAGALTTTFEELHFEIKPHDDCTVEQIYEILK (UniProt Q14790)”, -0.0677. For “CASP3_P42574_264_KQIPCIVSMLTK (UniProt P42574)” the value was -0.0758; for “CARS_P49589_55_VTWYCCGPTVYDASHMGHAR (UniProt P49589)”, 0.0441; for “CASP2_P42575_320_MFFIQACR (UniProt P42575)”, -0.311. As to “CCT4_P50991_252_IGLIQFCLSAPK (UniProt P50991)”, the “probe-labelled cysteine peptide fold change” value was -0.00184. For the target “CCS_O14618_113_CLIEGTIDGLEPGLHGLHVHQYGDLTNNCNSCGNHFNPDGASHGGPQDSDR (UniProt O14618)”, the “probe-labelled cysteine peptide fold change” value was -0.164. For “CCDC186_Q7Z3E2_80_IEAQENYIPDHGGGEDSCAK (UniProt Q7Z3E2)” the value was -0.135; for “CAPN15_O75808_101_GSCQEEAGPVR (UniProt O75808)”, -0.35; for “CCT3_P49368_455_TLIQNCGASTIR (UniProt P49368)”, -0.0189.

The values above are taken from the supplement of paper PMC12067093, “Discovery and optimisation of a covalent ligand for TRIM25 and its application to targeted protein ubiquitination” (Chemical Science, 2025).
